Results from patent US10787483B2 (Agency for Science, Technology and Research, priority 2014, dated 2020).

Assay: general procedure: Fmoc solid-phase peptide synthesis; 2-chlorotrityl chloride resin; HBTU, DIPEA
Conditions: whole synthesis; for isolated yield: scale of the general procedure 0.5 mmol

Substance	isolated mass [mg]	isolated yield [%]	isolated yield (overall) [% overall yield]
Arg-(B-peptoid) compound	24	6.5	–
Bip-Arg-Bip-agmantine	4.1	–	6
